Assay results: US12310236B2, “Encapsulant preventing lead leakage on perovskite, method for encapsulating perovskite to prevent lead leakage and perovskite photosensitive device comprising the same” (PUKYONG NATIONAL UNIVERSITY INDUSTRY—UNIVERSITY COOPERATION …, priority 2023, dated 2025)

Assay: Identification of lead leakage: encapsulated perovskite sample placed in 40 mL of water, water analyzed with ICPMS
Conditions: 30 seconds in water; without TiOx (FIG. 3)

## c1ccc2c(c1)OCCOCCOc1ccccc1OCCOCCO2 [di-benzo]
  concentration exhibiting the best encapsulating effect: 0.02 % by weight
